These are yes or no findings as the source states them, for the method shown. Binding seen in cells or lysates may run through a third protein. Some binding calls cover weakened binding; strength is not graded here.

Amino acid sequences for entries named in this document (tags omitted). A change or cut given only in a name is not applied to a line headed by its entry.
UniProt Q05086: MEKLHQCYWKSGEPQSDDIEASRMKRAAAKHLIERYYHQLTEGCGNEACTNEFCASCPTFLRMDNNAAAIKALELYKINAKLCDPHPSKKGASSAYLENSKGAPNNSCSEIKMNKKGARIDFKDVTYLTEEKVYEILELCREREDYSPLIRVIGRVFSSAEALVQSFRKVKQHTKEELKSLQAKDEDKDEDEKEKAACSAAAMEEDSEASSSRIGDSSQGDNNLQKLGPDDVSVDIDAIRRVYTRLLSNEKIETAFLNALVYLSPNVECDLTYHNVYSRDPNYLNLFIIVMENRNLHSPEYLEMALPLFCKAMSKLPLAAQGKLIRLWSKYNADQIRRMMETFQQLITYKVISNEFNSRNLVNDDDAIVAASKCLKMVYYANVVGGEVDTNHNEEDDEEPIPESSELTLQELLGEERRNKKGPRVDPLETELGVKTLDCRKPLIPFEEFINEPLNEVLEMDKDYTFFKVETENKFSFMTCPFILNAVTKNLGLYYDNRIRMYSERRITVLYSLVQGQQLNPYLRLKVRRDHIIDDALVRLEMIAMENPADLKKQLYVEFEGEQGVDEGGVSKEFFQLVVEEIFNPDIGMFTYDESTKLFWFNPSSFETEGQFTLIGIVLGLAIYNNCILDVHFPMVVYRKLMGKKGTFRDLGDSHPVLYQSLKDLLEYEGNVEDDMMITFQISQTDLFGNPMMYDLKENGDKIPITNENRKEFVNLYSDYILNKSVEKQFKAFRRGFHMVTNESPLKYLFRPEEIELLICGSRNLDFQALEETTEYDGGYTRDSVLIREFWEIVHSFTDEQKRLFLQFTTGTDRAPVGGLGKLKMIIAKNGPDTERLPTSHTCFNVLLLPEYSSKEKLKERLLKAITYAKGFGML

Assay [1] concerns the target T1, dual-specificity protein phosphatase 1 (human (endogenous in SK-MES-1 and NCI-H2170)) (UniProt P28562).
T1 sequence: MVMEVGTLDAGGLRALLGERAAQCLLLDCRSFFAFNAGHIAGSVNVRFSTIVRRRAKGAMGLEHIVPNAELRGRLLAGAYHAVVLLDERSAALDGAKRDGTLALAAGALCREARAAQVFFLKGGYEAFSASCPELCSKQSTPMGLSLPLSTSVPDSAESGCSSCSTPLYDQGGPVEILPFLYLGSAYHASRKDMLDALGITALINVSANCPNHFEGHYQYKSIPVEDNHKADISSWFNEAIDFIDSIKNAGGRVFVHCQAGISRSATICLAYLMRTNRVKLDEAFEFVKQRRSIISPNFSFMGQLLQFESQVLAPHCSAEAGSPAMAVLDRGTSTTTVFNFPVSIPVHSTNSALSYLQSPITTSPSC
Briefly: co-IP; endogenous proteins; cytosolic and nuclear protein fractions (Nuclear/Cytosol Fractionation Kit); both directions; western blot. (A western blot detects proteins with antibodies after separation by electrophoresis.)

Assay [2] concerns the target T1, dual-specificity protein phosphatase 1 (human (endogenous in SK-MES-1 and NCI-H2170)). Kind of assay: co-IP; endogenous proteins; SK-MES-1 and NCI-H2170 whole cell lysates in RIPA buffer with PMSF; anti-UBE3A, anti-DUSP1 or control IgG on Protein A/G agarose beads, 2 h at 4 °C; western blot.
Assay [3] addresses ubiquitin-protein ligase E3A (human (endogenous in SK-MES-1 and NCI-H2170)) (UniProt Q05086). Briefly: co-IP; endogenous proteins; cytosolic and nuclear protein fractions (Nuclear/Cytosol Fractionation Kit); both directions; western blot.
Assay [4] shares this target. Briefly: co-IP; endogenous proteins; SK-MES-1 and NCI-H2170 whole cell lysates in RIPA buffer with PMSF; anti-UBE3A, anti-DUSP1 or control IgG on Protein A/G agarose beads, 2 h at 4 °C; western blot.

With “ubiquitin-protein ligase E3A (from UniProt Q05086 1-875)”, the binding entry in assay [1] and in assay [2] was “binds” in each case.

B1: dual-specificity protein phosphatase 1 (protein, UniProt P28562 1-367)
chain: T1 sequence
B1: the binding result in assay [3] and in assay [4] was “binds” in each case.

(Values after publication PMC10310764.)
